# The other results are listed elsewhere or left out.
# Assays:
# Test in all cases: glycan array binding signal (z-score within array); higher = stronger binding
# Settings in all cases: glycan notation: IUPAC condensed, linker removed
# [1] = molecular target: Neu5Ac(a2-6)Gal(b1-4)GlcNAc(b1-3)Gal(b1-4)GlcNAc(b1-3)Gal(b1-4)GlcNAc(b1-2)Man(a1-3)[Neu5Ac(a2-6)Gal(b1-4)GlcNAc(b1-3)Gal(b1-4)GlcNAc(b1-3)Gal(b1-4)GlcNAc(b1-2)Man(a1-6)]GalNAc
# Outline: (§1)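 Glycan array data came from 3228 arrays in the Consortium for Functional Glycomics database, and only arrays with an available protein sequence were kept. Glycan names were put into IUPAC-condensed notation, and columns mapping to the same glycan were averaged. The binding signal is a within-array Z-score, averaged across arrays of one protein sequence run at different concentrations or buffers and across linkers. A negative Z-score can be read as non-binding.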
# [2] = molecular target: Neu5Ac(a2-6)Gal(b1-4)GlcNAc(b1-3)Gal(b1-4)GlcNAc(b1-3)GalNAc
# Outline: as §1
# [3] = molecular target: Neu5Ac(a2-6)Gal(b1-4)GlcNAc(b1-3)Gal(b1-4)GlcNAc(b1-3)[Neu5Ac(a2-6)Gal(b1-4)GlcNAc(b1-3)Gal(b1-4)GlcNAc(b1-6)]GalNAc
# Outline: as §1
# [4] = molecular target: Neu5Ac(a2-6)Gal(b1-4)GlcNAc(b1-3)Gal(b1-4)GlcNAc(b1-6)[Gal(b1-3)]GalNAc
# Outline: as §1
# [5] = molecular target: Neu5Ac(a2-6)Gal(b1-4)GlcNAc(b1-3)Gal(b1-4)[Fuc(a1-3)]GlcNAc(b1-3)Gal(b1-4)[Fuc(a1-3)]GlcNAc
# Outline: as §1
# [6] = molecular target: Neu5Ac(a2-6)Gal(b1-4)GlcNAc(b1-3)GalNAc
# Outline: as §1
# [7] = molecular target: Neu5Ac(a2-6)Gal(b1-4)GlcNAc(b1-3)[Neu5Ac(a2-6)Gal(b1-4)GlcNAc(b1-6)]GalNAc
# Outline: as §1
# [8] = molecular target: Neu5Ac(a2-6)Gal(b1-4)GlcNAc(b1-6)GalNAc
# Outline: as §1
# [9] = molecular target: Neu5Ac(a2-6)Gal(b1-4)GlcNAc(b1-6)[Gal(b1-3)GlcNAc(b1-3)]Gal(b1-4)Glc
# Outline: as §1
# [10] = molecular target: Neu5Ac(a2-6)Gal(b1-4)GlcNAc(b1-6)[Gal(b1-3)]GalNAc
# Outline: as §1
# [11] = molecular target: Neu5Ac(a2-6)Gal(b1-4)GlcNAc6S
# Outline: as §1
# Neu5Ac(a2-6)GalNAc = molecular target: Neu5Ac(a2-6)GalNAc
# Outline: as §1
# [12] = molecular target: Neu5Ac(a2-6)GalNAc(b1-4)GlcNAc
# Outline: as §1
# [13] = molecular target: Neu5Ac(a2-6)GalNAc(b1-4)GlcNAc6S
# Outline: as §1
# [14] = molecular target: Neu5Ac(a2-6)GlcNAc(b1-4)GlcNAc
# Outline: as §1
# [15] = molecular target: Neu5Ac(a2-6)GlcNAc(b1-4)GlcNAc(b1-4)GlcNAc
# Outline: as §1
# Neu5Ac(a2-8)Neu5Ac = molecular target: Neu5Ac(a2-8)Neu5Ac
# Outline: as §1
# [16] = molecular target: Neu5Ac(a2-8)Neu5Ac(a2-3)Gal(b1-3)GalNAc(b1-4)[Neu5Ac(a2-3)]Gal(b1-4)Glc
# Outline: as §1
# [17] = molecular target: Neu5Ac(a2-8)Neu5Ac(a2-3)Gal(b1-3)GalNAc(b1-4)[Neu5Ac(a2-8)Neu5Ac(a2-3)]Gal(b1-4)Glc
# Outline: as §1
# [18] = molecular target: Neu5Ac(a2-8)Neu5Ac(a2-3)Gal(b1-4)Glc
# Outline: as §1
# [19] = molecular target: Neu5Ac(a2-8)Neu5Ac(a2-3)Gal(b1-4)GlcNAc
# Outline: as §1
# [20] = molecular target: Neu5Ac(a2-8)Neu5Ac(a2-3)[Gal(b1-3)GalNAc(b1-4)]Gal(b1-4)Glc
# Outline: as §1
# [21] = molecular target: Neu5Ac(a2-8)Neu5Ac(a2-3)[GalNAc(b1-4)]Gal(b1-4)Glc
# Outline: as §1
# [22] = molecular target: Neu5Ac(a2-8)Neu5Ac(a2-8)Neu5Ac
# Outline: as §1
# [23] = molecular target: Neu5Ac(a2-8)Neu5Ac(a2-8)Neu5Ac(a2-3)Gal(b1-4)Glc
# Outline: as §1
# [24] = molecular target: Neu5Ac(a2-8)Neu5Ac(a2-8)Neu5Ac(a2-3)[Gal(b1-3)GalNAc(b1-4)]Gal(b1-4)Glc
# Outline: as §1
# [25] = molecular target: Neu5Ac(a2-8)Neu5Ac(a2-8)Neu5Ac(a2-3)[GalNAc(b1-4)]Gal(b1-4)Glc
# Outline: as §1
# [26] = molecular target: Neu5Ac(a2-8)Neu5Ac(a2-8)Neu5Ac(a2-8)Neu5Ac(a2-3)[GalNAc(b1-4)]Gal(b1-4)Glc
# Outline: as §1
# [27] = molecular target: Neu5Ac(a2-8)Neu5Gc(a2-3)Gal(b1-4)GlcNAc
# Outline: as §1
# [28] = molecular target: Neu5Ac(b2-6)Gal(b1-4)GlcNAc
# Outline: as §1
# Neu5Ac(b2-6)GalNAc = molecular target: Neu5Ac(b2-6)GalNAc
# Outline: as §1
# [29] = molecular target: Neu5Ac9Ac(a2-3)Gal(b1-3)GlcNAc
# Outline: as §1
# [30] = molecular target: Neu5Ac9Ac(a2-3)Gal(b1-4)GlcNAc
# Outline: as §1
# [31] = molecular target: Neu5Ac9Ac(a2-6)Gal(b1-4)GlcNAc
# Outline: as §1
# [32] = molecular target: Neu5Gc(a2-3)Gal(b1-3)GlcNAc
# Outline: as §1
# [33] = molecular target: Neu5Gc(a2-3)Gal(b1-3)[Fuc(a1-4)]GlcNAc
# Outline: as §1
# Neu5Gc(a2-3)Gal(b1-4)Glc = molecular target: Neu5Gc(a2-3)Gal(b1-4)Glc
# Outline: as §1
# [34] = molecular target: Neu5Gc(a2-3)Gal(b1-4)GlcNAc
# Outline: as §1
# [35] = molecular target: Neu5Gc(a2-3)Gal(b1-4)GlcNAc(b1-3)Gal(b1-4)GlcNAc(b1-2)Man(a1-3)[Neu5Gc(a2-3)Gal(b1-4)GlcNAc(b1-3)Gal(b1-4)GlcNAc(b1-2)Man(a1-6)]Man(b1-4)GlcNAc(b1-4)GlcNAc
# Outline: as §1
# [36] = molecular target: Neu5Gc(a2-3)Gal(b1-4)[Fuc(a1-3)]GlcNAc
# Outline: as §1
# [37] = molecular target: Neu5Gc(a2-6)Gal(b1-4)GlcNAc
# Outline: as §1
# Neu5Gc(a2-6)GalNAc = molecular target: Neu5Gc(a2-6)GalNAc
# Outline: as §1
# [38] = molecular target: Neu5Gc(a2-8)Neu5Ac(a2-3)Gal(b1-4)GlcNAc
# Outline: as §1
# [39] = molecular target: Neu5Gc(a2-8)Neu5Gc(a2-3)Gal(b1-4)GlcNAc
# Outline: as §1
# [40] = molecular target: Neu5Gc(a2-8)Neu5Gc(a2-3)Gal(b1-4)GlcNAc(b1-3)Gal(b1-4)GlcNAc
# Outline: as §1
binder,measurement,setting,value
PX14375D-bvu-513-34-513 (Bacteroides vulgatus) (protein) TEDTFWKDETDFNLALTSCYTPLKNALNGGYYGTRGVMLRIARADEVDFRNDISDVYTVNRFTNSNTNSLTQGMFYQFYNALYRTNSIMQKLEEKKEQFSTDFQNSVKGECLFIRGFYLFQLAKEFKDAPLRLTASQSPSTFPLAKSSQADIWAQAKEDLKTAASLLPITNKIGKPTQGAAYAALGKIYVYEENWQEAINVLEPLTQNPYTYKLVEDFNWNFDDTHENNAESIFELLIEDVGGTDLWGDGENINSTQSNTRPKEYAAAEVGGWYEANPTQQIMDIFWKEKDKDGNFDYRARCSVAWDYEGCTYYQRPFREVFAQDKWKTYWILKYQNWKTQKDEPAPPKSFINERAIRYADVLLMLAEAYMNKGALDTSIGYINQIRRRANLNDYSGPITKEGVFEDLVHQRAIEFFVEGERFYDLRRWGLLEQTLKTCDDTRYKNYQTGKSDNINKFNYFPIPAKELDTNPLCTPSEGW,glycan array binding signal (z-score),[1],0.396
same,glycan array binding signal (z-score),[2],-0.231
same,glycan array binding signal (z-score),[3],0.047
same,glycan array binding signal (z-score),[4],-0.013
same,glycan array binding signal (z-score),[5],0.509
same,glycan array binding signal (z-score),[6],-0.41
same,glycan array binding signal (z-score),[7],-0.462
same,glycan array binding signal (z-score),[8],0.217
same,glycan array binding signal (z-score),[9],0.707
same,glycan array binding signal (z-score),[10],-0.381
same,glycan array binding signal (z-score),[11],-0.301
same,glycan array binding signal (z-score),Neu5Ac(a2-6)GalNAc,-0.711
same,glycan array binding signal (z-score),[12],0.371
same,glycan array binding signal (z-score),[13],0.836
same,glycan array binding signal (z-score),[14],-0.189
same,glycan array binding signal (z-score),[15],0.337
same,glycan array binding signal (z-score),Neu5Ac(a2-8)Neu5Ac,-0.199
same,glycan array binding signal (z-score),[16],0.443
same,glycan array binding signal (z-score),[17],0.067
same,glycan array binding signal (z-score),[18],0.962
same,glycan array binding signal (z-score),[19],0.839
same,glycan array binding signal (z-score),[20],0.514
same,glycan array binding signal (z-score),[21],-0.025
same,glycan array binding signal (z-score),[22],-0.377
same,glycan array binding signal (z-score),[23],0.356
same,glycan array binding signal (z-score),[24],-0.008
same,glycan array binding signal (z-score),[25],0.725
same,glycan array binding signal (z-score),[26],-0.448
same,glycan array binding signal (z-score),[27],18.8
same,glycan array binding signal (z-score),[28],-0.245
same,glycan array binding signal (z-score),Neu5Ac(b2-6)GalNAc,-0.332
same,glycan array binding signal (z-score),[29],0.174
same,glycan array binding signal (z-score),[30],-0.566
same,glycan array binding signal (z-score),[31],-0.545
same,glycan array binding signal (z-score),[32],-0.181
same,glycan array binding signal (z-score),[33],-0.216
same,glycan array binding signal (z-score),Neu5Gc(a2-3)Gal(b1-4)Glc,-0.166
same,glycan array binding signal (z-score),[34],-0.43
same,glycan array binding signal (z-score),[35],-0.275
same,glycan array binding signal (z-score),[36],-0.091
same,glycan array binding signal (z-score),[37],0.891
same,glycan array binding signal (z-score),Neu5Gc(a2-6)GalNAc,-0.168
same,glycan array binding signal (z-score),[38],-1.13
same,glycan array binding signal (z-score),[39],-0.809
same,glycan array binding signal (z-score),[40],-0.969

# Exported with bars between the fields: part of the list above.
binder | measurement | setting | value
PX14375D-bvu-513-34-513 (Bacteroides vulgatus) (protein) TEDTFWKDETDFNLALTSCYTPLKNALNGGYYGTRGVMLRIARADEVDFRNDISDVYTVNRFTNSNTNSLTQGMFYQFYNALYRTNSIMQKLEEKKEQFSTDFQNSVKGECLFIRGFYLFQLAKEFKDAPLRLTASQSPSTFPLAKSSQADIWAQAKEDLKTAASLLPITNKIGKPTQGAAYAALGKIYVYEENWQEAINVLEPLTQNPYTYKLVEDFNWNFDDTHENNAESIFELLIEDVGGTDLWGDGENINSTQSNTRPKEYAAAEVGGWYEANPTQQIMDIFWKEKDKDGNFDYRARCSVAWDYEGCTYYQRPFREVFAQDKWKTYWILKYQNWKTQKDEPAPPKSFINERAIRYADVLLMLAEAYMNKGALDTSIGYINQIRRRANLNDYSGPITKEGVFEDLVHQRAIEFFVEGERFYDLRRWGLLEQTLKTCDDTRYKNYQTGKSDNINKFNYFPIPAKELDTNPLCTPSEGW | glycan array binding signal (z-score) | [4] | -0.013
same | glycan array binding signal (z-score) | [5] | 0.509
same | glycan array binding signal (z-score) | [6] | -0.41
same | glycan array binding signal (z-score) | [7] | -0.462
same | glycan array binding signal (z-score) | [8] | 0.217
same | glycan array binding signal (z-score) | [9] | 0.707
same | glycan array binding signal (z-score) | [10] | -0.381
same | glycan array binding signal (z-score) | [11] | -0.301
same | glycan array binding signal (z-score) | Neu5Ac(a2-6)GalNAc | -0.711
